Reference: PubChem BioAssay AID602454 (National Center for Advancing Translational Sciences (NCATS), 2012)
Some of the results follow. Shown are side measurements of this screen, not its main read-out; they come without a call. Most of these compounds were active or inconclusive in the main read-out, so they are no random draw.

experiment: qHTS Assay for Inhibitors of Influenza NS1 Protein Function: Viral Replication TCID50; settings: Influenza virus replication in cells, at 5 µM, stronger effect = lower value
Description: Influenza is a world-wide public health problem and emerging forms of the virus have the potential to cause a pandemic of equal or greater magnitude to the outbreaks recorded in 1918, 1957 or 1968. Vaccine development is proceeding and there also exist two classes of anti-influenza compounds. However these therapeutic modalities are neither fully effective nor widely enough available to fulfill global needs. In addition their potential usefulness against newly emergent strains is not known. Efforts are needed to develop novel agents against influenza virus, including broad-spectrum agents. Identification of small molecules that inhibit NS1 function either directly or by interfering with specific cellular pathways may be a key to increasing our defense against the virus.
We have miniaturized and optimized a cell based assay in which NS1 from influenza A is expressed in the budding yeast S. cerevisiae. NS1 is a multi-functional protein that counters the host innate immune response and facilitates viral versus cellular gene expression. Expression of NS1 causes a pronounced slow growth phenotype in yeast due to its intrinsic molecular activities. Small molecules that suppress the slow growth phenotype can be identified by a straightforward growth recovery assay using optical density (OD) as the measurement. The same yeast strain not expressing NS1 was used as positive control in the yeast growth recovery assay.
Hits resulting from the primary screen and other follow-up screens, were tested in two concentrations in this viral replication assay.
NIH Chemical Genomics Center [NCGC]
NIH Molecular Libraries Probe Centers Network [MLPCN]
Assay Submitter (PI): Daniel Engel, University of Virgina
Cell monolayers were infected at an m.o.i. of 0.1 for 48 h in the presence or absence of the compound, which was added at the beginning of infection. Virus titres were determined by TCID50 analysis (Reed, L. J. & Muench, H. (1938). A simple method of estimating fifty per cent endpoints. Am J Epidemiol 27, 493-497)

Row | SMILES | viral titer (log10 TCID50)
1 | COc1ccc(-n2nc(C)c3c(-c4ccc(O)c(OC)c4)ccnc32)cc1 | 8.33
2 | COc1cc(-c2ccnc3c2c(C)nn3-c2ccc(C(F)(F)F)cc2)ccc1O | 8.33
3 | COc1cc(-c2ccnc3c2c(C)nn3-c2cccc(C(F)(F)F)c2)ccc1O | 8.33
4 | Cc1ccc(-n2nc(C)c3c(-c4ccc(O)c(O)c4)c(C#N)c(N)nc32)cc1C | 8
5 | COc1cc(-c2c(C#N)c(N)nc3c2c(C)nn3-c2ccc(Cl)cc2)ccc1O | 8.66
6 | CCOC(=O)c1cnc2c(c(C)nn2-c2ccc(F)cc2)c1-c1ccc(O)c(OC)c1 | 8.5
7 | COc1cc(-c2c(C#N)c(N)nc3c2c(C)nn3-c2ccccc2)ccc1O | 8.5
8 | Cc1ccc(-n2nc(C)c3c(-c4ccc(O)c(O)c4)c(C#N)c(N)nc32)cc1 | 8
9 | Cc1nn(-c2ccc(Cl)cc2)c2nc(N)c(C#N)c(-c3ccc(O)c(O)c3)c12 | 8.33
